The values that follow come from PMC7033568.

Amino acid sequences for entries named in this document (tags omitted).
UniProt P27986: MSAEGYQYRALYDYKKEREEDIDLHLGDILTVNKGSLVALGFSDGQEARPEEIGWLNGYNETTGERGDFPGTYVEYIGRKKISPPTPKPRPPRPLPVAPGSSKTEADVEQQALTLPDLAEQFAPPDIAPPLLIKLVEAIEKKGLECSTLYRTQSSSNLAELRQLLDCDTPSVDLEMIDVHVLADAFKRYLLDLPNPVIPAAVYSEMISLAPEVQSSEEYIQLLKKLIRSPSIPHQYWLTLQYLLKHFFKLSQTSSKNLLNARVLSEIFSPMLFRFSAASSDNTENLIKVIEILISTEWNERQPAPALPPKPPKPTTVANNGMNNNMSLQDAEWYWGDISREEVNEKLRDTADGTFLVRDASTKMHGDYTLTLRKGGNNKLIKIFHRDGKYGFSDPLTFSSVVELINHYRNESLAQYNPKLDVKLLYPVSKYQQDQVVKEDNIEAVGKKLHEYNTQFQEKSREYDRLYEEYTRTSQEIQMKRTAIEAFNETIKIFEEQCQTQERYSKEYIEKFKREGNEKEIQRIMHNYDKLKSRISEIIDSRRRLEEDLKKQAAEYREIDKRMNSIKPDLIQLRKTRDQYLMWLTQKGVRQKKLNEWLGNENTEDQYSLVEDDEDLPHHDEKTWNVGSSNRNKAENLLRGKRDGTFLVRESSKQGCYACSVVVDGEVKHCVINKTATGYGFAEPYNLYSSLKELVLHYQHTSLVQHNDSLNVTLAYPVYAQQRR

No constants are given. Whether binding was seen depends on the method and setting. Binding seen in cells or lysates may run through a third protein. Some entries that bind do so weakly or less than the wild type. Tags and fused reporters may be left off the sequences shown.

This assay addresses HA-PIK3R1 (UniProt P27986). Put plainly: co-IP; HEK293 cells co-transfected with Flag-LRRC4 and HA-PIK3R1; precipitated with control IgG, Flag or PIK3R1 antibodies, protein A magnetic beads, 4°C; immunoblot. (In general: A western blot detects proteins with antibodies after separation by electrophoresis.)

B1: Flag-LRRC4 (Leucine-rich repeat-containing protein 4) (protein, UniProt Q9HBW1 39-653)
chain: ASAGPQNCPSVCSCSNQFSKVVCTRRGLSEVPQGIPSNTRYLNLMENNIQMIQADTFRHLHHLEVLQLGRNSIRQIEVGAFNGLASLNTLELFDNWLTVIPSGAFEYLSKLRELWLRNNPIESIPSYAFNRVPSLMRLDLGELKKLEYISEGAFEGLFNLKYLNLGMCNIKDMPNLTPLVGLEELEMSGNHFPEIRPGSFHGLSSLKKLWVMNSQVSLIERNAFDGLASLVELNLAHNNLSSLPHDLFTPLRYLVELHLHHNPWNCDCDILWLAWWLREYIPTNSTCCGRCHAPMHMRGRYLVEVDQASFQCSAPFIMDAPRDLNISEGRMAELKCRTPPMSSVKWLLPNGTVLSHASRHPRISVLNDGTLNFSHVLLSDTGVYTCMVTNVAGNSNASAYLNVSTAELNTSNYSFFTTVTVETTEISPEDTTRKYKPVPTTSTGYQPAYTTSTTVLIQTTRVPKQVAVPATDTTDKMQTSLDEVMKTTKIIIGCFVAVTLLAAAMLIVFYKLRKRHQQRSTVTAARTVEIIQVDEDIPAATSAAATAAPSGVSGEGAVVLPTIHDHINYNTYKPAHGAHWTENSLGNSLHPTVTTISEPYIIQTHTKDKVQETQI
With B1, the binding entry is reported as “binds”.
